Source: publication PMC12040169 (PLOS Biology, 2025)
The list shows a part of the results.

System: T1, CTL2-GFP (C. trachomatis L2/434/Bu, GFP-expressing)
T1 construct: L2/434/Bu, GFP-expressing
Set-up: species or system HeLa; Intracellular C. trachomatis growth in HeLa cells, bulk GFP fluorescence relative to DMSO
Settings: bulk GFP, single well; 28.5 h, 10 µM; inhibitor

SMILES | % of control remaining
Cc1nnnn1-c1cc(NC(=O)NCCN2CCOCC2)ccc1F [CBK306246] | 133.289%
CCc1nnc(SCC(=O)Nc2ccc(CN3CCOCC3)cc2)[nH]1 [CBK306097] | 98.9257%
O=C(CN1CCCCC1)Nc1ccc(NC(=O)CN2CCCCC2)c(Cl)c1 [CBK264173] | 129.775%
CC1Cc2cc(C(=O)N3CCCCC3CN(C)C)ccc2O1 (stereo not drawn) [CBK282193] | 121.021%
Cc1[nH]c(=O)[nH]c(=O)c1Cc1ccccc1 [CBK113244] | 97.0959%
Cc1[nH]c2ccccc2c1C(CC(=O)c1ccc(Br)cc1)C(=O)O (stereo not drawn) [CBK269480] | 142.701%
O=C(NC(=S)Nc1ccc(OCc2ccccc2)cc1)c1cccnc1 [CBK266224] | 145.543%
COc1cc(C)nc(N2CCN(C(=O)CCc3ccsc3)CC2)n1 [CBK304572] | 113.47%
COC(=O)c1sc2ncccc2c1NS(=O)(=O)c1cc(Br)c(Cl)s1 [CBK049973] | 109.093%
COc1cnc(-c2cnn(C)c2)c(NC(=O)c2cc(C)oc2C)n1 [CBK145218] | 126.832%
O=S(=O)(Nc1ccc2ncccc2c1)c1ccc(OC(F)(F)F)cc1 [CBK045339] | 104.07%
Cc1nn(CCNC(=O)C2CC(=O)N(CC(C)C)C2)c(C)c1C (stereo not drawn) [CBK281630] | 142.917%
COc1cccc(/C=C2/SC(=S)N(C)C2=O)c1OCCCOc1ccc(C)cc1C [CBK264446] | 123.865%
CN(CC1CCN(C(=O)OC(C)(C)C)CC1)c1ccnc(-c2ccncc2)n1 [CBK166064] | 126.798%
CN1CCc2nc(SCC(=O)NC(C)(C)C)c(C#N)cc2C1 [CBK267445] | 139.254%
CC(C)NC(=O)N[C@H]1CCN2C(=O)c3cc(-c4ccccc4F)ccc3NC(=O)[C@H]12 [CBK289335] | 130.44%
N#Cc1cccnc1N1CCC(NC(=O)c2cccnc2)CC1 [CBK304283] | 83.1417%
Cc1cccn2cc(C(=O)NC(C)CN3CCCC3)nc12 (stereo not drawn) [CBK281714] | 97.3494%
Cc1nnnn1C(Cc1cccc(F)c1)C(=O)N1CC(C)CC(C)C1 (stereo not drawn) [CBK298262] | 146.437%
Cc1ccc(C2c3c(O)n[nH]c3CC(C)(O)C2C(=O)OCc2ccccc2)cc1 (stereo not drawn) [CBK269417] | 154.359%
CCOc1ccc(-c2ccc(C#N)c(=S)[nH]2)cc1 [CBK288470] | 149.591%
COc1cc2nc(N3CCC4(CCN(C(=O)C(c5ccccc5)C(C)C)C4)C3)nc(N)c2cc1OC (stereo not drawn) [CBK160790] | 56.7354%
CCOC(=O)NC(Nc1cccc(C)n1)(C(F)(F)F)C(F)(F)F [CBK261343] | 115.553%
O=C(CCn1c(C(F)F)cc2cccnc21)N1CCCCCC1 [CBK284983] | 112.98%
FC(F)(F)c1ccnc(OCCN2CCNCC2)n1 [CBK113297] | 150.803%
CN(C)Cc1ccccc1-n1ncc(CN2CCS(=O)(=O)CC2)n1 [CBK112877] | 96.6533%

4 structures out of the list, ordered by heavy-atom count, largest number first.
SMILES | % of control remaining
O=C(NC(=S)Nc1ccc(OCc2ccccc2)cc1)c1cccnc1 [CBK266224] | 145.543%
CN(C)Cc1ccccc1-n1ncc(CN2CCS(=O)(=O)CC2)n1 [CBK112877] | 96.6533%
N#Cc1cccnc1N1CCC(NC(=O)c2cccnc2)CC1 [CBK304283] | 83.1417%
FC(F)(F)c1ccnc(OCCN2CCNCC2)n1 [CBK113297] | 150.803%

(cont.)

SMILES | % of control remaining
Cc1nc2ccc(C(=O)N3CCN(C4CCCCC4)C(=O)C3)cc2[nH]1 [CBK282131] | 139.049%
Oc1ccc(/C=N/c2ccc(O)c(-c3nc4ccccc4s3)c2)cc1O [CBK262473] | 125.294%
CC1Cc2ccccc2N1C(=O)C1C2C=CC(O2)C1C(=O)O (stereo not drawn) [CBK286891] | 122.147%
CC(=O)NS(=O)(=O)c1ccc(NC(=N)Nc2nc(C)cc(C)n2)cc1 [CBK263117C] | 94.7039%
COc1cc(C(=O)N2CCN(C(=O)c3ccco3)CC2)cc(OC)c1OC [CBK144476] | 112.855%
CCOC(=O)C1(C2CCCCC2)CCN(C(=O)/C=C/c2ccc3c(c2)OCO3)CC1 [CBK136924] | 84.5348%
CC1(C#N)CCCN(C(=O)NC2CCN(Cc3cccc(O)c3)CC2)C1 (stereo not drawn) [CBK306787] | 121.212%
Cc1ccc(S(=O)(=O)N(CC(=O)O)c2ccc(C(C)C)cc2)cc1 [CBK287116] | 111.978%
CCOC(=O)C1(C2CCCCC2)CCN(C(=O)C2CCN(C)CC2)CC1 [CBK136948] | 96.0089%
COc1ccc(CNC(=O)c2cc(O)nc3ccccc23)cc1OC [CBK296763] | 151.036%
Cc1cc(C)c2c(n1)OC(N1CCOCC1)(C(F)(F)F)CC2=O (stereo not drawn) [CBK267301] | 153.467%
Cc1nc2nc(N)nn2c(C)c1CCC(=O)NCc1ccccc1 [CBK304986] | 135.412%
CCN(CCN(C)C)Cc1ccc(F)cc1F [CBK261877] | 121.267%
Oc1ccc2ccccc2c1/C=N/c1ccc(-c2cc(-c3ccc(/N=C/c4c(O)ccc5ccccc45)cc3)ncn2)cc1 [CBK261621] | 112.082%
COCCc1nsc(N2CCC(Oc3cccnc3N(C)C)C2)n1 (stereo not drawn) [CBK305418] | 84.2626%
O=C(O)c1ccc(CNC(=S)Nc2ccc([N+](=O)[O-])cc2)cc1 [CBK267037] | 157.348%
C[C@]12CN(C3CCSC3)C[C@H]1C(=O)Nc1ccccc1C(=O)N2 (stereo partly drawn) [CBK284788] | 138.212%
Clc1cncc(N2CCCC2)n1 [CBK083595] | 84.0674%
COc1ccc(-c2nc(NC(=O)c3ccccn3)cnc2-c2cccc(C(F)(F)F)c2)cc1 [CBK036785] | 129.926%
CC(C)CNS(=O)(=O)c1ccc(N2CCCC2=O)cc1 [CBK304981] | 90.2787%
Cc1ccsc1C(=O)N1CCC(n2cc(C(C)(C)O)nn2)CC1 [CBK307069] | 125.623%
O=C(O)CSc1nc2ccc(NC(=O)COc3ccc(Cl)cc3)cc2s1 [CBK299773] | 194.767%
CSc1nc(C#N)c(N)c(SC2C=CCCC2)n1 (stereo not drawn) [CBK021817] | 139.837%
CC(=O)N(C)c1ncc(Br)cc1C(=O)NCc1ccc2c(c1)CCO2 [CBK076544] | 109.925%
Cc1ccc(Cl)c(OC(C)C(=O)NCC2(N3CCOCC3)CCSC2)c1 (stereo not drawn) [CBK305681] | 118.153%
